Some of the results follow.

In this test the target is T1, OsSMF1 (Oryza sativa, UniProt Q6ZLB0 1-436).
T1 sequence: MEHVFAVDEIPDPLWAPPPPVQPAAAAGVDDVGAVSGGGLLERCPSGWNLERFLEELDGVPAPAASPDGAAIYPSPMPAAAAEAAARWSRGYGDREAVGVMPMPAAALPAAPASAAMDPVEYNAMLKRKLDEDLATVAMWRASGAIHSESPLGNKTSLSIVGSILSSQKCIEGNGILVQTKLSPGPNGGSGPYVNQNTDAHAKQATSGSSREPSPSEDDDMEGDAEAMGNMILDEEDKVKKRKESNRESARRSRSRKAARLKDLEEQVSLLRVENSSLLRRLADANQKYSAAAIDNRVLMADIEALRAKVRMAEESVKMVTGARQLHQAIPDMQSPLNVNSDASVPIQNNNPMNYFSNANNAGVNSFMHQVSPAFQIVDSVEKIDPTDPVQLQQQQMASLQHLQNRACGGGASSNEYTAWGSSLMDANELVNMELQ
Description: protein-binding microarray (RPBM); PBS, 2% BSA, 51.3 ng/ul salmon testes DNA, 50 uM zinc acetate, 200 nM TF, 25 C, 1 h; high values mean tight binding. The note with it: protein: recombinant; tags: N-terminal polyhistidine and DsRed monomer fusion (pET32a); chain copies: 2; label: CyDye5-dUTP incorporated in the synthesized complementary strand; 3' TTTTT single-stranded linker to array surface; dsDNA, one strand shown. An outline of the steps:
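The binding signal is fluorescence intensity per array feature (arbitrary units). Readings came from an Axon 4000B scanner after a washed, 2% BSA-blocked, double-stranded custom Agilent array had been incubated for 1 h at 25 °C with 200 nM protein and 50 µM zinc acetate. The protein was a Ni–NTA-purified transcription factor fused N-terminally to polyhistidine and DsRed, expressed in E. coli BL21-CodonPlus.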
Turning to “GGATGGCCATCGGGGTAGAAGAGATGTGATGGGTTGACTCCGGAGTCACCTAGTGCAG”, the binding signal is 3240 fluorescence intensity (a.u.).
As to “GTAATGCCACGTAGGCGCCACATCGGATAAAGATCCGGTCCGGAGTCACCTAGTGCAG”, the binding signal was 24700 fluorescence intensity (a.u.).
As for “CTTGTGGCCGGCGCAGCCGCCGCACCCCTCCGACGTGTTCCGGAGTCACCTAGTGCAG”, the binding signal was 5380 fluorescence intensity (a.u.).
For “CGCGCGGCTGACGGAGATCGAGAGCCGCGTCGTCGCCATGCGGAGTCACCTAGTGCAG” the value was 3760 fluorescence intensity (a.u.).
The same measure for “ACGTGTAAGGTATCAACTGATGTGTCGGACACTCGGACTCCGGAGTCACCTAGTGCAG”: 4140 fluorescence intensity (a.u.); for “AAAGAAATACTAGTATGCTGATGCAAGCTAGTGTGATCCACGGAGTCACCTAGTGCAG”: 3470 fluorescence intensity (a.u.); for “TGAAAAGACGATCTTTATGACGCATGGTTGTTGACACATGCGGAGTCACCTAGTGCAG”: 24200 fluorescence intensity (a.u.).
For “TCAACTGATGACTTGGATTGGGTCTCCAGCATGTATGGTCCGGAGTCACCTAGTGCAG” the value was 8500 fluorescence intensity (a.u.); for “GCAAATTGTCCATCTCTGACGCCTCATCTGAATTGACTGACGGAGTCACCTAGTGCAG”, 29100 fluorescence intensity (a.u.).
With “TTGAAATTAGAACGATGTGACAGAAAAGTTGGAAGTTTATCGGAGTCACCTAGTGCAG”, the binding signal is 20300 fluorescence intensity (a.u.).
“ATTTATGGGCTGGGGCTGTGGACCGCCAGACTTCATCGTCCGGAGTCACCTAGTGCAG”: the binding signal is 3190 fluorescence intensity (a.u.).
For “TATACACCACGTTTGCTGGCTTGGCTTCCTTCCACACTCCCGGAGTCACCTAGTGCAG” the value was 4000 fluorescence intensity (a.u.); for “ATATATTTCACTGGGGTTTCTATGGCTGTGGAAGGATATCCGGAGTCACCTAGTGCAG”, 25700 fluorescence intensity (a.u.).
The same measure for “TCTTCTCCCGTACTCCGCCACGCCGCACGTCTTCCCTTCGCGGAGTCACCTAGTGCAG”: 3950 fluorescence intensity (a.u.); for “AGTTTGCAATTCATCGACGTGTAATTCTGTACAATGAAATCGGAGTCACCTAGTGCAG”: 5080 fluorescence intensity (a.u.); for “GCAGGCTCACTCACCTCGCTTCCTGTCCGACATCGCGCCGCGGAGTCACCTAGTGCAG”: 3240 fluorescence intensity (a.u.).
As to “AAAGAAAGAAAGGCACGCGTCATCTTCCTTCCTACTCACGCGGAGTCACCTAGTGCAG”, the binding signal was 7350 fluorescence intensity (a.u.).
Regarding “ATAACGTGACAAATGCGACATGGTTCATGCTTGCTCGATTCGGAGTCACCTAGTGCAG”, the binding signal was 3680 fluorescence intensity (a.u.).
As to “GAGGCCTGCGACGTGATCGTGGACGAACACATCAGCGGCACGGAGTCACCTAGTGCAG”, the binding signal was 5130 fluorescence intensity (a.u.).
The same measure for “TCCTGGTACGGCACCTCCACGTCGGCGGCCGCCACCACGTCGGAGTCACCTAGTGCAG”: 5370 fluorescence intensity (a.u.); for “CGTCCGCAGCACGCCACGGTAGCGCGACACCCGGCCTTCCCGGAGTCACCTAGTGCAG”: 4600 fluorescence intensity (a.u.); for “ATCGTGCTCCTTCTTTGGGTTGTAGTATTTTATATGGTTGCGGAGTCACCTAGTGCAG”: 3250 fluorescence intensity (a.u.).
For “AAATTAATGAGATCGATTGTTCGTTGCAATGTCAGCAGGTCGGAGTCACCTAGTGCAG”, the binding signal was 4600 fluorescence intensity (a.u.).
As for “TTGGCGAGGCTCGCCGTGGTTGCGCCGGCGGCGGCCACGTCGGAGTCACCTAGTGCAG”, the binding signal is 4880 fluorescence intensity (a.u.).
The same measure for “AAAACTATTCGAATAGCTGTGCCCGCGGTTATGGGCGGGTCGGAGTCACCTAGTGCAG”: 3340 fluorescence intensity (a.u.).
For “CTAAGCATCCTGCATAATATCATAATCGTCCGGACGTCATCGGAGTCACCTAGTGCAG” the value was 34100 fluorescence intensity (a.u.).
For the sequence “CTGCTATCGGCTAGCGACAGGGCTCGAGTTCGATGTCATCCGGAGTCACCTAGTGCAG”, the binding signal is 3280 fluorescence intensity (a.u.).
The same measure for “TGCGCAGTCCGAGTCCGAGCCCAACTAAACCACGTTCTAACGGAGTCACCTAGTGCAG”: 34700 fluorescence intensity (a.u.); for “TGCTGCCGCTGTACACGCGCGGACCCAAGAACGCGCCTCCCGGAGTCACCTAGTGCAG”: 3910 fluorescence intensity (a.u.); for “GACGGTTAACCCAATGCAGGTTCACATAATCGTGCACGTTCGGAGTCACCTAGTGCAG”: 28400 fluorescence intensity (a.u.).
The same measure for “TCCACGCGCGTGAGGTTTGCTGTGACGAAGGCCATCGGTGCGGAGTCACCTAGTGCAG”: 3330 fluorescence intensity (a.u.); for “ATTTCAATCTAGCTGACATCATCACTTCATCTTATTTGACCGGAGTCACCTAGTGCAG”: 11700 fluorescence intensity (a.u.); for “AGTAGGCGGTGATGTGACTCAGCTATACTTAAAACAAGGCCGGAGTCACCTAGTGCAG”: 5750 fluorescence intensity (a.u.).
As to “GGCGACCAGACATGGCTGTCCACGCTGGCCCCTCGCCTTACGGAGTCACCTAGTGCAG”, the binding signal was 5460 fluorescence intensity (a.u.).
The same measure for “GAGTTCTTAAAGGCTATACACCCTACGAGAATCCACATCACGGAGTCACCTAGTGCAG”: 4320 fluorescence intensity (a.u.); for “GGACACGAGGCTTCTTTGGCAGACGTGGCGCTGAGTGAGCCGGAGTCACCTAGTGCAG”: 11500 fluorescence intensity (a.u.).
Regarding “GGGCCCACCTTGAAAGATCACGTGTCACCCGCGCCATCTACGGAGTCACCTAGTGCAG”, the binding signal was 4030 fluorescence intensity (a.u.).
For the sequence “CATCGAAAATCAAAATCCAAGGAACACGTCAATAACAACACGGAGTCACCTAGTGCAG”, the binding signal was 8250 fluorescence intensity (a.u.).
The same measure for “AATCGAGAAATCCTTCGAACCTAGTAATAATGCCTACTCTCGGAGTCACCTAGTGCAG”: 23700 fluorescence intensity (a.u.); for “GTCCAATCCCTTACCGTTGATTGGCCACGTGGCTAAAACTCGGAGTCACCTAGTGCAG”: 8830 fluorescence intensity (a.u.); for “CAAGCGCGGCGGCGGCGACAGACGTCATCGGCGGCGAGGTCGGAGTCACCTAGTGCAG”: 6430 fluorescence intensity (a.u.).
Take “AACCGCAAGCAACCCAGAGACGACGAGCCACGCACTCACCCGGAGTCACCTAGTGCAG”: the binding signal was 4150 fluorescence intensity (a.u.).

Source of the values: paper PMC7819943, “Rice protein-binding microarrays: a tool to detect cis-acting elements near promoter regions in rice”.
